# Data from the supplement of paper PMC4604168 (melanoma cell lines).
# This is one part of the list. Repeats are few or missing, and single values can be far off.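 The apoptosis fraction was the count of cleaved-PARP antibody-stained nuclei relative to all DNA-stained nuclei, imaged in 1,536-well plates. Screening doses were set so most cells survived, and baseline and induced cleaved-PARP levels vary greatly across cell lines.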
# What was measured:
# Assay in all cases: cleaved PARP positive nuclei fraction relative to DMSO control; melanoma cells; higher = more apoptosis
# Details in all cases: library dose: low library concentration; 72 h
# CBRC034 = system: CBRC034 (line from a melanoma biopsy)
# COLO792 = system: COLO792
# COLO800 = system: COLO800
# COLO829 = system: COLO829
# G361 = system: G361
# IPC-298 = system: IPC-298
# IST-MEL1 = system: IST-MEL1
# LB2518-MEL = system: LB2518-MEL
# LOXIMVI = system: LOXIMVI
# MEL-HO = system: MEL-HO
# MZ2-MEL = system: MZ2-MEL
# MeWo = system: MeWo
# RPMI7951 = system: RPMI7951
# RVH-421 = system: RVH-421
# SkMel28 = system: SkMel28
# SkMel2 = system: SkMel2
# SkMel30 = system: SkMel30
# UACC62 = system: UACC62
SMILES,cleaved PARP positive nuclei fraction (CBRC034),cleaved PARP positive nuclei fraction (COLO792),cleaved PARP positive nuclei fraction (COLO800),cleaved PARP positive nuclei fraction (COLO829),cleaved PARP positive nuclei fraction (G361),cleaved PARP positive nuclei fraction (IPC-298),cleaved PARP positive nuclei fraction (IST-MEL1),cleaved PARP positive nuclei fraction (LB2518-MEL),cleaved PARP positive nuclei fraction (LOXIMVI),cleaved PARP positive nuclei fraction (MEL-HO),cleaved PARP positive nuclei fraction (MZ2-MEL),cleaved PARP positive nuclei fraction (MeWo),cleaved PARP positive nuclei fraction (RPMI7951),cleaved PARP positive nuclei fraction (RVH-421),cleaved PARP positive nuclei fraction (SkMel28),cleaved PARP positive nuclei fraction (SkMel2),cleaved PARP positive nuclei fraction (SkMel30),cleaved PARP positive nuclei fraction (UACC62)
"N#CC[C@H](C1CCCC1)n1cc(-c2ncnc3[nH]ccc23)cn1 [ruxolitinib] + COc1ccc(C2=N[C@@H](c3ccc(Cl)cc3)[C@@H](c3ccc(Cl)cc3)N2C(=O)N2CCNC(=O)C2)c(OC(C)C)c1 [Nutlin-3] (first compound 1 µM, partner dose 0.1 µM)",75.6%,12.3%,57.8%,102%,124%,122%,29.5%,40.2%,125%,84.4%,75.3%,147%,17.1%,62.8%,211%,64.9%,38.2%,133%
"O=C(Nc1cc(C(F)(F)F)cc(C(F)(F)F)c1)c1cc(Cl)ccc1O + CS(=O)(=O)CCNCc1ccc(-c2ccc3ncnc(Nc4ccc(OCc5cccc(F)c5)c(Cl)c4)c3c2)o1 [lapatinib] (first compound 0.016 µM, partner dose 0.8 µM)",127%,63.8%,126%,101%,29.4%,60.6%,136%,94%,121%,128%,119%,136%,129%,124%,175%,88.3%,46.3%,89.8%
"Cc1cc(Nc2cc(N3CCN(C)CC3)nc(Sc3ccc(NC(=O)C4CC4)cc3)n2)n[nH]1 [Tozasertib] + CS(=O)(=O)c1ccc(C(=O)Nc2ccc(Cl)c(-c3ccccn3)c2)c(Cl)c1 [vismodegib] (first compound 0.006 µM, partner dose 1 µM)",66.9%,59.7%,96.1%,112%,120%,215%,133%,132%,117%,129%,64.6%,69.7%,94.7%,26.7%,85.1%,43.2%,62%,188%
"N#CC[C@H](C1CCCC1)n1cc(-c2ncnc3[nH]ccc23)cn1 [ruxolitinib] + Nc1nc(F)nc2c1ncn2[C@@H]1O[C@H](CO)[C@@H](O)[C@@H]1O [fludarabine] (first compound 1 µM, partner dose 0.2 µM)",38.7%,140%,73.3%,129%,201%,45.6%,68.8%,93.6%,52.5%,77.5%,225%,719%,60.2%,125%,41.4%,1040%,709%,131%
"Cc1cc(Nc2cc(N3CCN(C)CC3)nc(Sc3ccc(NC(=O)C4CC4)cc3)n2)n[nH]1 [Tozasertib] + CC(=O)c1c(C)c2cnc(Nc3ccc(N4CCNCC4)cn3)nc2n(C2CCCC2)c1=O [palbociclib] (first compound 0.006 µM, partner dose 0.04 µM)",121%,75.8%,116%,59.9%,70.5%,95.9%,67.1%,70.6%,52.7%,200%,65.9%,135%,131%,49.2%,86.5%,61.9%,121%,166%
"Cc1ccc(Nc2nccc(N(C)c3ccc4c(C)n(C)nc4c3)n2)cc1S(N)(=O)=O [Pazopanib] + Nc1nc(F)nc2c1ncn2[C@@H]1O[C@H](CO)[C@@H](O)[C@@H]1O [fludarabine] (first compound 0.4 µM, partner dose 0.2 µM)",32.8%,126%,118%,126%,144%,53%,84%,108%,141%,157%,57%,300%,44.7%,111%,53.1%,217%,545%,60%
"O=C(/C=C/c1cccnc1)NCCCCC1CCN(C(=O)c2ccccc2)CC1 + Nc1ncn([C@H]2C[C@H](O)[C@@H](CO)O2)c(=O)n1 [decitabine] (first compound 0.01 µM, partner dose 0.1 µM)",841%,938%,88.3%,353%,4250%,291%,70.1%,445%,133%,439%,1060%,77.9%,108%,75.5%,84%,930%,76.3%,180%
"Cc1cc(Nc2cc(N3CCN(C)CC3)nc(Sc3ccc(NC(=O)C4CC4)cc3)n2)n[nH]1 [Tozasertib] + C[C@]1(O)C[C@@H](c2nc(-c3ccc4ccc(-c5ccccc5)nc4c3)c3c(N)nccn32)C1 [OSI906] (first compound 0.006 µM, partner dose 0.4 µM)",65.4%,97.2%,153%,65.8%,106%,90%,138%,29.3%,107%,192%,81.8%,207%,189%,183%,89.3%,61.7%,168%,60.5%
"COc1cc([C@@H]2c3cc4c(cc3[C@@H](O[C@@H]3O[C@@H]5CO[C@@H](C)O[C@H]5[C@H](O)[C@H]3O)[C@H]3COC(=O)[C@H]23)OCO4)cc(OC)c1O [etoposide] + Nc1ccn([C@@H]2O[C@H](CO)[C@@H](O)C2(F)F)c(=O)n1 [gemcitabine] (first compound 0.02 µM, partner dose 0.0004 µM)",149%,96%,56.3%,112%,60.7%,62.5%,104%,172%,248%,121%,104%,170%,81.1%,65.5%,89.6%,109%,186%,179%
"CC[C@]1(O)C[C@H]2CN(CCc3c([nH]c4ccccc34)[C@@](C(=O)OC)(c3cc4c(cc3OC)N(C=O)[C@H]3[C@@](O)(C(=O)OC)[C@H](OC(C)=O)[C@]5(CC)C=CCN6CC[C@]43[C@@H]65)C2)C1 [vincristine] + COc1cc([C@@H]2c3cc4c(cc3[C@@H](O[C@@H]3O[C@@H]5CO[C@@H](C)O[C@H]5[C@H](O)[C@H]3O)[C@H]3COC(=O)[C@H]23)OCO4)cc(OC)c1O [etoposide] (first compound 0.0001 µM, partner dose 0.02 µM)",163%,104%,78.7%,126%,171%,138%,69.1%,571%,203%,192%,146%,42.5%,116%,80.1%,337%,228%,336%,363%
"O=C(Nc1cc(C(F)(F)F)cc(C(F)(F)F)c1)c1cc(Cl)ccc1O + CCCS(=O)(=O)Nc1ccc(F)c(C(=O)c2c[nH]c3ncc(Cl)cc23)c1F [PLX4720] (first compound 0.016 µM, partner dose 0.08 µM)",145%,64.3%,122%,116%,121%,45.2%,124%,103%,136%,59.6%,80.4%,160%,58%,150%,85.5%,145%,45%,104%
"Cc1cc(Nc2cc(N3CCN(C)CC3)nc(Sc3ccc(NC(=O)C4CC4)cc3)n2)n[nH]1 [Tozasertib] + Cc1ccc(Nc2nccc(N(C)c3ccc4c(C)n(C)nc4c3)n2)cc1S(N)(=O)=O [Pazopanib] (first compound 0.006 µM, partner dose 0.4 µM)",71.6%,65%,134%,128%,138%,148%,173%,106%,133%,54.6%,90.6%,68%,151%,92.9%,52.4%,59.6%,82.7%,177%
"O=c1[nH]nc(Sc2ncc([N+](=O)[O-])s2)n1-c1ccc2c(c1)OCCO2 + C[C@@H](Oc1cc(-c2cnn(C3CCNCC3)c2)cnc1N)c1c(Cl)ccc(F)c1Cl [Crizotinib] (first compound 0.2 µM, partner dose 0.2 µM)",142%,53.4%,83.4%,102%,139%,87.7%,33%,101%,96.5%,200%,78.9%,118%,34.3%,155%,35.9%,41%,83.1%,87.1%
"N#CC[C@H](C1CCCC1)n1cc(-c2ncnc3[nH]ccc23)cn1 [ruxolitinib] + C#Cc1cccc(Nc2ncnc3cc(OCCOC)c(OCCOC)cc23)c1 [erlotinib] (first compound 1 µM, partner dose 0.8 µM)",161%,155%,39%,91.6%,150%,85.3%,137%,129%,85.1%,84.4%,183%,146%,164%,88.1%,218%,84.2%,87.7%,29.5%
"O=C(Nc1cc(C(F)(F)F)cc(C(F)(F)F)c1)c1cc(Cl)ccc1O + Clc1ccc(Nc2nnc(Cc3ccncc3)c3ccccc23)cc1 [vatalanib] (first compound 0.016 µM, partner dose 2 µM)",138%,57.9%,126%,97%,130%,89.4%,188%,95%,57.5%,106%,25%,148%,154%,47.2%,95.6%,30.7%,107%,75.4%
"CC[C@]1(O)C[C@H]2CN(CCc3c([nH]c4ccccc34)[C@@](C(=O)OC)(c3cc4c(cc3OC)N(C=O)[C@H]3[C@@](O)(C(=O)OC)[C@H](OC(C)=O)[C@]5(CC)C=CCN6CC[C@]43[C@@H]65)C2)C1 [vincristine] + CCCS(=O)(=O)Nc1ccc(F)c(C(=O)c2c[nH]c3ncc(Cl)cc23)c1F [PLX4720] (first compound 0.0001 µM, partner dose 0.08 µM)",59.2%,89.1%,110%,53.9%,192%,46.2%,120%,335%,270%,65%,24.2%,343%,160%,46.4%,242%,213%,222%,317%
"CCCCCCCCCCCCCCCCCCOP(=O)([O-])OC1CC[N+](C)(C)CC1 [Perifosine] + CC(C)C[C@H](NC(=O)[C@H](Cc1ccccc1)NC(=O)c1cnccn1)B(O)O [Bortezomib] (first compound 0.4 µM, partner dose 0.001 µM)",70.6%,171%,21.8%,11.9%,457%,66.1%,386%,130%,34.5%,115%,35.5%,194%,224%,196%,371%,131%,27.5%,167%

# Individual results from above:
# Under cleaved PARP positive nuclei fraction (MEL-HO), N#CC[C@H](C1CCCC1)n1cc(-c2ncnc3[nH]ccc23)cn1 [ruxolitinib] + COc1ccc(C2=N[C@@H](c3ccc(Cl)cc3)[C@@H](c3ccc(Cl)cc3)N2C(=O)N2CCNC(=O)C2)c(OC(C)C)c1 [Nutlin-3] (first compound 1 µM, partner dose 0.1 µM) shows 84.4%
# Under cleaved PARP positive nuclei fraction (RPMI7951), O=C(Nc1cc(C(F)(F)F)cc(C(F)(F)F)c1)c1cc(Cl)ccc1O + CS(=O)(=O)CCNCc1ccc(-c2ccc3ncnc(Nc4ccc(OCc5cccc(F)c5)c(Cl)c4)c3c2)o1 [lapatinib] (first compound 0.016 µM, partner dose 0.8 µM) shows 129%
